Data published in patent US12503485B2, “Human aminosterol ENT-03 compounds, related compositions comprising the same, and methods of using the same” (Enterin, Inc., priority 2019, dated 2025).
At least one compound was matched to its structure with a doubt left.

System: Xenopus leavis tadpole
Experiment: In vivo activity on Xenopus tadpole in water
Settings: 10 μg/ml in 500 ml distilled water, about 1 hour
Description: To assess the activity of ENT-05 in vivo, the compound was added to 500 ml of distilled water to a concentration of 10 μg/ml. A Xenopus leavis tadpole, premetamorphic, was placed into the solution. […] A second animal was placed in 500 ml of water, containing 10 μg/ml ENT-05, but also 50 mM NaCl. In this case, the animal survived. The animal was then transferred to spring water without either salt or ENT-05 and remained active over the following days.

CC(CCCC(C)C1CCC2C3C(O)CC4CC(NCCCNCCCCN)CCC4(C)C3CC(O)C12C)C(=O)O (single isomer, unassigned) [ENT-05]
effect on tadpole: gradually swelled, stopped moving, and eventually died
